Laboratory results reported in article PMC13215057.
No constants are given. Whether binding was seen depends on the method and setting. In cells and extracts the contact can be indirect. Binding calls can cover weak binding; strength is not graded here. One block for each molecule: values may come before it.

Sequences of proteins named here, by UniProt entry; tags and fusion partners are left off. A change or cut given only in a name is not applied to a line headed by its entry.
UniProt Q9R0T4: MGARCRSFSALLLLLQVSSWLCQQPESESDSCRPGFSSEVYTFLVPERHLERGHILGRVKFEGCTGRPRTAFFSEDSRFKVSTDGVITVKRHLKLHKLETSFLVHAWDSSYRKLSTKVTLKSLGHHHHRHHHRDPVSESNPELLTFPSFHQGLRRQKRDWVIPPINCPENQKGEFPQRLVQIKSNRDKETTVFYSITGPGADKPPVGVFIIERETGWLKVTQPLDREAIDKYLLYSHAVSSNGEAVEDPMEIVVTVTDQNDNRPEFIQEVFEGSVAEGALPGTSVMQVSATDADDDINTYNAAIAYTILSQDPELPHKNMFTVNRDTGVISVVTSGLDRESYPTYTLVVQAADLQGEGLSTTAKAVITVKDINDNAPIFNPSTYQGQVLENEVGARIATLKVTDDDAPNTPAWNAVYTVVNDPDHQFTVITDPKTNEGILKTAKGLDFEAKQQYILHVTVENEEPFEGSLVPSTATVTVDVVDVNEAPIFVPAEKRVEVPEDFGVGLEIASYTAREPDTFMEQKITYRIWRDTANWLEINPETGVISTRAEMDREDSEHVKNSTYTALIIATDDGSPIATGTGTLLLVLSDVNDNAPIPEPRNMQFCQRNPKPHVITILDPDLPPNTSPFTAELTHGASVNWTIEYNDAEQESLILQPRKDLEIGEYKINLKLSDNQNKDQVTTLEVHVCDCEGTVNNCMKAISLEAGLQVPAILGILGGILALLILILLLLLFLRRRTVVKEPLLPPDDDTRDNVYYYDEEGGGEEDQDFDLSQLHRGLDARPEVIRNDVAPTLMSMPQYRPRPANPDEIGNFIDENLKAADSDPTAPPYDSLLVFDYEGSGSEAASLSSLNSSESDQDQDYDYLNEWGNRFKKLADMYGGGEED

How the values were obtained:
[1] = target: GFP-tagged E-cadherin (rat) (UniProt Q9R0T4); experiment: cross-linking + co-IP; ReCLIP: Can 10 cells expressing GFP-tagged E- or N-cadherin treated with 0.5 mM DSP (thiol-cleavable cross-linker) 30 min at RT, lysed in RIPA buffer, precipitated with anti-GFP antibody on protein G Sepharose 2 h at 4°C, eluted with reducing agents, blotted for E-cadherin, N-cadherin, GFP
[2] = target: E-cadherin (endogenous, Can 10 cells) (rat (endogenous in Can 10)); experiment: cross-linking + co-IP; ReCLIP of endogenous proteins: Can 10 cells treated with 0.5 mM DSP 30 min at RT, lysed in RIPA buffer, precipitated with control IgG, anti-E-cadherin or anti-N-cadherin antibody on protein G Sepharose 2 h at 4°C, eluted with reducing agents, immunoblot
[3] = target: GFP-tagged N-cadherin (rat), Q9Z1Y3; experiment: cross-linking + co-IP; ReCLIP: Can 10 cells expressing GFP-tagged E- or N-cadherin treated with 0.5 mM DSP (thiol-cleavable cross-linker) 30 min at RT, lysed in RIPA buffer, precipitated with anti-GFP antibody on protein G Sepharose 2 h at 4°C, eluted with reducing agents, blotted for E-cadherin, N-cadherin, GFP; settings: remark: other sources report otherwise

binding [1]: binds weakly
Molecule: N-cadherin (endogenous, Can 10 cells) (from UniProt Q9Z1Y3 160-906)

binding [2]: binds
B1: ARVCF (endogenous, Can 10 cells) (protein, UniProt B4F7F3 1-973)
chain: MEDCNVHSAASILASVKEQEARFERLTRALEQERRHVALQLERAQQPGMSSGGMVGSGQPLPMAWQQLVLQEQSPGSQASLATMPEAPEVLEETVTVEEDPGTPTSHVSIVTSEDGTTRRTETKVTKTVKTVTTRTVRQVPLGPDGLPLLDGGPPLGSFADGPLDRHYVLRGGGPAATLSRAYLSSGGGFPDGPEPRDIPSYGSLSRGLGVRPPRTGLLGPGPGDGCFTLPGRREAFPMGSESGPPSGRSLPEHFQAEPYGLEDDTRSLAADDEGGPDLEPDYSTATRRRPEYGRGLRARALEDTADDTGELVEERPPFPAATAPLAQPERGSLGSLDRVVRRSPSVDSTRKEPRWRDPELPEVLAMLRHPVDPVKANAAAYLQHLCFENEGIKRRVRQLRGLPLLVALLDHPRAEVRRRACGALRNLSYGRDADNKAAIRDCGGVPALVRLLRAARDNEVRELVTGTLWNLSSYEPLKMVIIDHGLQTLTHEVIVPHSGWEREPNEDSKPRDAEWTTVFKNTSGCLRNVSSDGAEARRRLRECEGLVDALLHALQSAVGRKDTDNKSVENCVCIMRNLSYHVHKEVPGADRYQEVEPGIPGSAATSQRRRKDDASCFGGKKAKGKKDAEADRNFDTLDLPKRTEAAKGFELLYQPEVVRLYLSLLTESRNFNTLEAAAGALQNLSAGNWMWATYIRATVRKERGLPVLVELLQSETDKVVRAVAIALRNLSLDQRNKDLIGSYAMTELVRNVRNAQAPAHPSAHLEEDTVVAVLNTIHEIVSDSLDNARSLLQARGVPALVALVASSQSVREAKAASHVLQTVWSYKELRGALQRDGWTKAHFQSASTAKGPKGTPNSGGFDDSTLPLVDKNLDGEKSTTRDVIPMDTLGPDGYSTVDRRERRTLGSDSIGDSSEKELLKGPGPAVCSSDHMEVIGRGPSGTDPVLGPGAPPFCVGLAKPLVYLALPSSLLS

binding [3]: binds
B2: N-cadherin (endogenous, Can 10 cells), Q9Z1Y3 160-906 (protein)
chain: DWVIPPINLPENSRGPFPQELVRIRSDRDKNLSLRYSVTGPGADQPPTGIFIINPISGQLSVTKPLDRELIARFHLRAHAVDINGNQVENPIDIVINVIDMNDNRPEFLHQVWNGSVPEGSKPGTYVMTVTAIDADDPNALNGMLRYRILSQAPSTPSPNMFTINNETGDIITVAAGLDREKVQQYTLIIQATDMEGNPTYGLSNTATAVITVTDVNDNPPEFTAMTFYGEVPENRVDVIVANLTVTDKDQPHTPAWNAAYRISGGDPTGRFAILTDPNSNDGLVTVVKPIDFETNRMFVLTVAAENQVPLAKGIQHPPQSTATVSVTVIDVNENPYFAPNPKIIRQEEGLHAGTMLTTLTAQDPDRYMQQNIRYTKLSDPANWLKIDPVNGQITTIAVLDRESPNVKNNIYNATFLASDNGIPPMSGTGTLQIYLLDINDNAPQVLPQEAETCETPEPNSINITALDYDIDPNAGPFAFDLPLSPATIKRNWTITRLNGDFAQLNLKIKFLEAGIYEVPIVITDSGNPPKSNISILRVKVCQCDSNGDCTDVDRIVGAGLGTGTIIAILLCIIILLILVLMFVVWMKRRDKERQAKQLLIDPEDDVRDNILKYDEEGGGEEDQDYDLSQLQQPDTVEPDAIKPVGIRRLDERPIHAEPQYPVRSAAPHPGDIGDFINEGLKAADNDPTAPPYDSLLVFDYEGSGSTAGSLSSLNSSSSGGDQDYDYLNDWGPRFKKLADMYGGGDD
